Measured values as given in publication PMC10174191.
Results are given in words; binding and its absence hold for the method and conditions named. For some of these results: In cells and extracts the contact can be indirect. Some binding calls cover weakened binding; strength is not graded here. For some of these results: Where a sequence is shown, tags or fusion partners need not be part of it. Each block holds one molecule with its values, some of them ahead of it.

Amino acid sequences for entries named in this document (tags omitted). Residues count along the entry.
UniProt Q99LI8: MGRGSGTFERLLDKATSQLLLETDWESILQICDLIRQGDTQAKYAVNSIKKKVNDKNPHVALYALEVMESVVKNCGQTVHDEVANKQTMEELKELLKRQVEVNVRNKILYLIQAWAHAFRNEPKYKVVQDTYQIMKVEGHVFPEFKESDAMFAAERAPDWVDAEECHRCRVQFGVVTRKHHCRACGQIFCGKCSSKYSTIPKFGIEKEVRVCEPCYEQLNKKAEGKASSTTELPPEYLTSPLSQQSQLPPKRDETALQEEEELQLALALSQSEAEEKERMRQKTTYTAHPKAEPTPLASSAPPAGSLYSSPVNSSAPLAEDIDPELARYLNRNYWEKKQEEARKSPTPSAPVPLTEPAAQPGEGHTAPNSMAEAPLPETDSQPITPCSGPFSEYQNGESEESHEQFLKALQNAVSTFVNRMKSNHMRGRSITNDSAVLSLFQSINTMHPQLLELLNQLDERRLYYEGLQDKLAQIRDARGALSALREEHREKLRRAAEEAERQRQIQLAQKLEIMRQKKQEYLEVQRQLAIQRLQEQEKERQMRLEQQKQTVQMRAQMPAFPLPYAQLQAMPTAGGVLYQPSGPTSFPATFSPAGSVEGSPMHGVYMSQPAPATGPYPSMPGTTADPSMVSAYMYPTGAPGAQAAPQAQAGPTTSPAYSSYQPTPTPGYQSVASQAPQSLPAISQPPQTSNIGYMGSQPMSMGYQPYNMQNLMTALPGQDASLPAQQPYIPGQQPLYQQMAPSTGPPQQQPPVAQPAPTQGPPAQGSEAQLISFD
UniProt Q9QUN7, residues 25-784: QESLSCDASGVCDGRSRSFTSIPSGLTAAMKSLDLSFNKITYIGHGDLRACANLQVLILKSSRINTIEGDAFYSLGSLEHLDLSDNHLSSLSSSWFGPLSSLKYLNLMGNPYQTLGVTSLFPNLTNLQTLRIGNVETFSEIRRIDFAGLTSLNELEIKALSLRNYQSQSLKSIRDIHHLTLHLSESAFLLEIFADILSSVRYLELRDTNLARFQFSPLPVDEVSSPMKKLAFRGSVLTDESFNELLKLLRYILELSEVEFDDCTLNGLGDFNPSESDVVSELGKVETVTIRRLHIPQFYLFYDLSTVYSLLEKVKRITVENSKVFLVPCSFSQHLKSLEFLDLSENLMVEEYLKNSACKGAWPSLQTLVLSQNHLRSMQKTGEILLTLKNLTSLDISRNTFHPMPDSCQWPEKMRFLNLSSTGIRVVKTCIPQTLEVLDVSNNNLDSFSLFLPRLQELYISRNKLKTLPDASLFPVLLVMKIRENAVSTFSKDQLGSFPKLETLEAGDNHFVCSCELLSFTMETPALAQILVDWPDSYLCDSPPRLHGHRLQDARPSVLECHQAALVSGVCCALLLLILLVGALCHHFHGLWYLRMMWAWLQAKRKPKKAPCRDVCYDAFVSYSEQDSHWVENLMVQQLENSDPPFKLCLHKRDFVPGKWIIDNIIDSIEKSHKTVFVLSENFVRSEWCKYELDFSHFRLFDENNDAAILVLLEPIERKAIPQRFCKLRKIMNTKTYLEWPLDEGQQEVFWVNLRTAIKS

Assays:
[1] = target: HRS-Flag (UniProt Q99LI8); test: co-IP; HEK293T cotransfected with HRS-Flag and TLR3-AcGFP or TLR9-AcGFP for 72 h; lysates immunoprecipitated with anti-M2-Flag antibody, immunoblotting
[2] = target: T1, endogenous TLR3 with C-terminal Myc-HA tags (Tlr3^t/t knock-in) (mouse (endogenous in BMDMs)) (UniProt Q99MB1); test: co-IP; Znrf1+/+Tlr3t/t and Znrf1-/-Tlr3t/t BMDMs untreated or treated with poly(I:C) (30 μg/ml); lysates immunoprecipitated with anti-HA antibody, immunoblotting
T1 sequence: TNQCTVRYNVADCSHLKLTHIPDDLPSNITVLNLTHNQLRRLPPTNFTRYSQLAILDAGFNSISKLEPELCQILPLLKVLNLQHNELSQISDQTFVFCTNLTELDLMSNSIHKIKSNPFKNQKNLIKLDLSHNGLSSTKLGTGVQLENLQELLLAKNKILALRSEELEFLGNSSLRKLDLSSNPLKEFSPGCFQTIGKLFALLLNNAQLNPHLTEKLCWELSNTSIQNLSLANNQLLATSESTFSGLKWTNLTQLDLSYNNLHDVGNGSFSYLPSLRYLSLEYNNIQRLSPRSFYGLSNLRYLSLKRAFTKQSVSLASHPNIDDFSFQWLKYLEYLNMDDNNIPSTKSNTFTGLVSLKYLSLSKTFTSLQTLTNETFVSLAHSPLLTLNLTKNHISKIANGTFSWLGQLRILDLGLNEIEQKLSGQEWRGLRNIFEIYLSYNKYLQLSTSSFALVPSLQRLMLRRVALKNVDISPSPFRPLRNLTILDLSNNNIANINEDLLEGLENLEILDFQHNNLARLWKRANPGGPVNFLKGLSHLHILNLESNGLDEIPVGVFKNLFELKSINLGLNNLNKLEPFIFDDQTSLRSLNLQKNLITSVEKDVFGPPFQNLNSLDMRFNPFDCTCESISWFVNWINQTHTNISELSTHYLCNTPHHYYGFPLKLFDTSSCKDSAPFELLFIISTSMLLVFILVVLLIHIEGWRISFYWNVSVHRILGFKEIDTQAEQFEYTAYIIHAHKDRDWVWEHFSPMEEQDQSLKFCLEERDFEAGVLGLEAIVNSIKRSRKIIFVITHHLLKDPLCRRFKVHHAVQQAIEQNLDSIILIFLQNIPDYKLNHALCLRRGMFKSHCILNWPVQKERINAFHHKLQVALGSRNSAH

[3] = target: TRIF (UniProt Q80UF7); test: semidenaturing detergent agarose gel electrophoresis (SDD-AGE); cells stimulated with poly(I:C) (30 μg/ml); lysates with or without DTT (5 mM) on 1.5% agarose gel with 0.1% SDS, immunoblotting
[4] = target: Flag-TLR2 (UniProt Q9QUN7); test: co-IP; HEK293T cotransfected with Flag-TLR2 or Flag-TLR3 and ZNRF1-Myc; reciprocal immunoprecipitation, immunoblotting
[5] = target: T2, Flag-TLR3 (UniProt Q99MB1); test: as above
T2 sequence: T1 sequence

[6] = target: T3, TLR3-AcGFP (mouse) (UniProt Q99MB1); test: co-IP; HEK293T cotransfected with AcGFP-tagged TLR3 and Flag-tagged full-length or truncated ZNRF1 for 72 h; immunoprecipitation followed by immunoblotting
T3 sequence: T1 sequence

Molecule: TLR3-AcGFP (from UniProt Q99MB1 26-905) (receptor)
binding [1]: binds

Molecule: HRS, endogenous (from UniProt Q99LI8 1-775)
binding [2]: binds

B1: TRIF (protein, UniProt Q80UF7 1-732)
chain: MDNPGPSLRGAFGILGALERDRLTHLKHKLGSLCSGSQESKLLHAMVLLALGQDTEARVSLESLKMNTVAQLVAHQWADMETTEGPEEPPDLSWTVARLYHLLAEENLCPASTRDMAYQVALRDFASQGDHQLGQLQNEAWDRCSSDIKGDPSGFQPLHSHQGSLQPPSASPAVTRSQPRPIDTPDWSWGHTLHSTNSTASLASHLEISQSPTLAFLSSHHGTHGPSKLCNTPLDTQEPQLVPEGCQEPEEISWPPSVETSVSLGLPHEISVPEVSPEEASPILPDALAAPDTSVHCPIECTELSTNSRSPLTSTTESVGKQWPITSQRSPQVPVGDDSLQNTTSSSPPAQPPSLQASPKLPPSPLSSASSPSSYPAPPTSTSPVLDHSETSDQKFYNFVVIHARADEQVALRIREKLETLGVPDGATFCEEFQVPGRGELHCLQDAIDHSGFTILLLTASFDCSLSLHQINHALMNSLTQSGRQDCVIPLLPLECSQAQLSPDTTRLLHSIVWLDEHSPIFARKVANTFKTQKLQAQRVRWKKAQEARTLKEQSIQLEAERQNVAAISAAYTAYVHSYRAWQAEMNKLGVAFGKNLSLGTPTPSWPGCPQPIPSHPQGGTPVFPYSPQPPSFPQPPCFPQPPSFPQPPSFPLPPVSSPQSQSFPSASSPAPQTPGPQPLIIHHAQMVQLGVNNHMWGHTGAQSSDDKTECSENPCMGPLTDQGEPLLETPE
binding [3]: binds

B2: TLR9-AcGFP (receptor, UniProt Q9EQU3 26-1032)
chain: LGTLPAFLPCELKPHGLVDCNWLFLKSVPRFSAAASCSNITRLSLISNRIHHLHNSDFVHLSNLRQLNLKWNCPPTGLSPLHFSCHMTIEPRTFLAMRTLEELNLSYNGITTVPRLPSSLVNLSLSHTNILVLDANSLAGLYSLRVLFMDGNCYYKNPCTGAVKVTPGALLGLSNLTHLSLKYNNLTKVPRQLPPSLEYLLVSYNLIVKLGPEDLANLTSLRVLDVGGNCRRCDHAPNPCIECGQKSLHLHPETFHHLSHLEGLVLKDSSLHTLNSSWFQGLVNLSVLDLSENFLYESITHTNAFQNLTRLRKLNLSFNYRKKVSFARLHLASSFKNLVSLQELNMNGIFFRLLNKYTLRWLADLPKLHTLHLQMNFINQAQLSIFGTFRALRFVDLSDNRISGPSTLSEATPEEADDAEQEELLSADPHPAPLSTPASKNFMDRCKNFKFTMDLSRNNLVTIKPEMFVNLSRLQCLSLSHNSIAQAVNGSQFLPLTNLQVLDLSHNKLDLYHWKSFSELPQLQALDLSYNSQPFSMKGIGHNFSFVTHLSMLQSLSLAHNDIHTRVSSHLNSNSVRFLDFSGNGMGRMWDEGGLYLHFFQGLSGLLKLDLSQNNLHILRPQNLDNLPKSLKLLSLRDNYLSFFNWTSLSFLPNLEVLDLAGNQLKALTNGTLPNGTLLQKLDVSSNSIVSVVPAFFALAVELKEVNLSHNILKTVDRSWFGPIVMNLTVLDVRSNPLHCACGAAFVDLLLEVQTKVPGLANGVKCGSPGQLQGRSIFAQDLRLCLDEVLSWDCFGLSLLAVAVGMVVPILHHLCGWDVWYCFHLCLAWLPLLARSRRSAQTLPYDAFVVFDKAQSAVADWVYNELRVRLEERRGRRALRLCLEDRDWLPGQTLFENLWASIYGSRKTLFVLAHTDRVSGLLRTSFLLAQQRLLEDRKDVVVLVILRPDAHRSRYVRLRQRLCRQSVLFWPQQPNGQGGFWAQLSTALTRDNRHFYNQNFCRGPTAE
binding [1]: binds

More lines, now with the values ahead:

binding [4]: no binding | binding [5]: binds
B3: ZNRF1-Myc (enzyme, UniProt Q91V17 1-227)
chain: MGGKQSTAARSRGPFPGVSTDDSAVPPPGGAPHFGHYRTGGGAMGLRSRSVSSVAGMGMDPSTAGGVPFSLYTPASRGTGDSERAPGGGGSTSDSTYAHGNGYQETGGGHHRDGMLYLGSRASLADALPLHIAPRWFSSHSGFKCPICSKSVASDEMEMHFIMCLSKPRLSYNDDVLTKDAGECVICLEELLQGDTIARLPCLCIYHKSCIDSWFEVNRSCPEHPAD

binding [6]: binds
B4: ZNRF1-Flag, full-length (enzyme, UniProt Q91V17 1-227)
chain: B3 chain
